According to the supplement of paper PMC4604168 (melanoma cell lines):
The list shows a part of the results. Single values are uncertain, as repeats are few or missing.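 The apoptosis fraction was the count of cleaved-PARP antibody-stained nuclei relative to all DNA-stained nuclei, imaged in 1,536-well plates. Screening doses were set so most cells survived, and baseline and induced cleaved-PARP levels vary greatly across cell lines.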

Legend:
Assay in all cases: cleaved PARP positive nuclei fraction relative to DMSO control; melanoma cells; higher = more apoptosis
Settings in all cases: library dose: low library concentration; 72 h
CBRC034 = test system: CBRC034 (line from a melanoma biopsy)
COLO792 = test system: COLO792
COLO800 = test system: COLO800
COLO829 = test system: COLO829
G361 = test system: G361
IPC-298 = test system: IPC-298
IST-MEL1 = test system: IST-MEL1
LB2518-MEL = test system: LB2518-MEL
LOXIMVI = test system: LOXIMVI

| Compound | cleaved PARP positive nuclei fraction (CBRC034) [%] | cleaved PARP positive nuclei fraction (COLO792) [%] | cleaved PARP positive nuclei fraction (COLO800) [%] | cleaved PARP positive nuclei fraction (COLO829) [%] | cleaved PARP positive nuclei fraction (G361) [%] | cleaved PARP positive nuclei fraction (IPC-298) [%] | cleaved PARP positive nuclei fraction (IST-MEL1) [%] | cleaved PARP positive nuclei fraction (LB2518-MEL) [%] | cleaved PARP positive nuclei fraction (LOXIMVI) [%] |
| --- | --- | --- | --- | --- | --- | --- | --- | --- | --- |
| O=S(=O)(c1ccccc1)N(CC(F)(F)F)c1ccc(C(O)(C(F)(F)F)C(F)(F)F)cc1 + C/C(O)=C(\C#N)C(=O)Nc1cc(Br)ccc1Br [LFM-A13] (first compound 1.4 µM, partner dose 2 µM) | 87.7 | 95.6 | 153 | 135 | 124 | 59.1 | 128 | 83.5 | 50 |
| CN(NC(=O)CC(=O)NN(C)C(=S)c1ccccc1)C(=S)c1ccccc1 + O=C(Oc1ccc([N+](=O)[O-])cc1)N1CCC(C(O)(c2ccc3c(c2)OCO3)c2ccc3c(c2)OCO3)CC1 [JZL184] (first compound 0.006 µM, partner dose 1 µM) | 122 | 173 | 238 | 119 | 138 | 55.2 | 178 | 92.9 | 20.5 |
| Cc1cc([N+](=O)[O-])ccc1NS(=O)(=O)c1cc(Cl)ccc1Cl + O=C(Oc1ccc([N+](=O)[O-])cc1)N1CCC(C(O)(c2ccc3c(c2)OCO3)c2ccc3c(c2)OCO3)CC1 [JZL184] (first compound 1 µM, partner dose 1 µM) | 1560 | 102 | 103 | 109 | 70.1 | 62 | 98.9 | 43.1 | 136 |
| Cn1cncc1[C@@](N)(c1ccc(Cl)cc1)c1ccc2c(c1)c(-c1cccc(Cl)c1)cc(=O)n2C [tipifarnib] + O=C(Oc1ccc([N+](=O)[O-])cc1)N1CCC(C(O)(c2ccc3c(c2)OCO3)c2ccc3c(c2)OCO3)CC1 [JZL184] (first compound 0.01 µM, partner dose 1 µM) | 87.4 | 55.3 | 218 | 91.7 | 30 | 63.5 | 85.7 | 164 | 54.7 |
| COc1ccc2c(c1)CCC1C2CCC2(C)C(NCCCCCCN3C(=O)C=CC3=O)CCC12 (configuration not stated) + O=C(Oc1ccc([N+](=O)[O-])cc1)N1CCC(C(O)(c2ccc3c(c2)OCO3)c2ccc3c(c2)OCO3)CC1 [JZL184] (first compound 0.4 µM, partner dose 1 µM) | 104 | 126 | 116 | 74.7 | 140 | 70.9 | 114 | 107 | 44.6 |
| O=C(O)c1ccc(-c2c[nH]c3ncc(-c4ccccc4)cc23)cc1C1CCCC1 + C/C(O)=C(\C#N)C(=O)Nc1cc(Br)ccc1Br [LFM-A13] (first compound 0.16 µM, partner dose 2 µM) | 182 | 126 | 63.5 | 68.1 | 116 | 87.5 | 194 | 251 | 160 |
| C[As](C)SC[C@H](NC(=O)CC[C@H](N)C(=O)O)C(=O)NCC(=O)O [Darinaparsin] + COc1ccc2c(c1)CCC1C2CCC2(C)C(NCCCCCCN3C(=O)C=CC3=O)CCC12 [U73122] (first compound 0.4 µM, partner dose 0.4 µM) | 90.9 | 79.3 | 63.5 | 200 | 73 | 54.4 | 53.3 | 81.5 | 55 |
| Nc1cccc2c1CN(C1CCC(=O)NC1=O)C2=O (configuration not stated) [lenalidomide] + O=C(Oc1ccc([N+](=O)[O-])cc1)N1CCC(C(O)(c2ccc3c(c2)OCO3)c2ccc3c(c2)OCO3)CC1 [JZL184] (first compound 1 µM, partner dose 1 µM) | 66 | 97 | 150 | 119 | 62.6 | 175 | 352 | 139 | 97.5 |
| C/C(O)=C(\C#N)C(=O)Nc1cc(Br)ccc1Br + O=C(Oc1ccc([N+](=O)[O-])cc1)N1CCC(C(O)(c2ccc3c(c2)OCO3)c2ccc3c(c2)OCO3)CC1 [JZL184] (first compound 2 µM, partner dose 1 µM) | 43.3 | 50.1 | 99.9 | 67.1 | 69.8 | 78.7 | 156 | 95.4 | 77.6 |
| C[As](C)SC[C@H](NC(=O)CC[C@H](N)C(=O)O)C(=O)NCC(=O)O [Darinaparsin] + CC(C)CCN1c2nc(Nc3cc(F)c(O)c(F)c3)ncc2N(C)C(=O)C1C [BID1870] (first compound 0.4 µM, partner dose 0.2 µM) | 87.5 | 93.4 | 161 | 81.2 | 94.9 | 41.6 | 45.7 | 95.6 | 71.3 |
| Cc1cc(SCc2sc(-c3ccc(C(F)(F)F)c(F)c3)nc2C)ccc1OCC(=O)O + O=c1cc(-c2cccc3c2Sc2ccccc2S3)oc(N2CCOCC2)c1 [KU55933] (first compound 2 µM, partner dose 1 µM) | 72.5 | 85.1 | 41 | 91.5 | 61.9 | 40.6 | 179 | 221 | 33.5 |
| O=C(O)c1ccc(-c2c[nH]c3ncc(-c4ccccc4)cc23)cc1C1CCCC1 + O=C(Oc1ccc([N+](=O)[O-])cc1)N1CCC(C(O)(c2ccc3c(c2)OCO3)c2ccc3c(c2)OCO3)CC1 [JZL184] (first compound 0.16 µM, partner dose 1 µM) | 102 | 48.1 | 27.8 | 101 | 38.9 | 81.2 | 55.8 | 137 | 43.2 |
| O=C(Oc1ccc([N+](=O)[O-])cc1)N1CCC(C(O)(c2ccc3c(c2)OCO3)c2ccc3c(c2)OCO3)CC1 + O=c1cc(-c2cccc3c2Sc2ccccc2S3)oc(N2CCOCC2)c1 [KU55933] (first compound 1 µM, partner dose 1 µM) | 109 | 142 | 49.5 | 59.7 | 93.7 | 148 | 108 | 70.7 | 41.4 |
| COCC[n+]1c2c(n(Cc3cnccn3)c1C)C(=O)c1ccccc1C2=O + C/C(O)=C(\C#N)C(=O)Nc1cc(Br)ccc1Br [LFM-A13] (first compound 0.0004 µM, partner dose 2 µM) | 42.5 | 93.2 | 244 | 87.2 | 84.3 | 87.3 | 101 | 116 | 85.5 |
| COc1ccc(-c2ccc3c(N4CCOCC4)nc(N4C[C@@H](C)O[C@@H](C)C4)nc3n2)cc1CO + C/C(O)=C(\C#N)C(=O)Nc1cc(Br)ccc1Br [LFM-A13] (first compound 0.02 µM, partner dose 2 µM) | 41.3 | 99.3 | 10.6 | 113 | 122 | 45 | 253 | 167 | 44 |
| COc1cc2c(Oc3ccc4[nH]c(C)cc4c3F)ncnc2cc1OCCCN1CCCC1 [cediranib] + O=C(Oc1ccc([N+](=O)[O-])cc1)N1CCC(C(O)(c2ccc3c(c2)OCO3)c2ccc3c(c2)OCO3)CC1 [JZL184] (first compound 0.4 µM, partner dose 1 µM) | 43.2 | 101 | 106 | 61.5 | 62.9 | 38.2 | 67.9 | 80.6 | 30.8 |
| CN(C)S(=O)(=O)c1ccc2c(c1)/C(=C/c1cc3c([nH]1)CCCC3)C(=O)N2 + O=C(Oc1ccc([N+](=O)[O-])cc1)N1CCC(C(O)(c2ccc3c(c2)OCO3)c2ccc3c(c2)OCO3)CC1 [JZL184] (first compound 0.4 µM, partner dose 1 µM) | 79.3 | 119 | 111 | 102 | 208 | 83.6 | 183 | 187 | 46.8 |
| CO[C@@H]1[C@H](N(C)C(=O)c2ccccc2)C[C@H]2O[C@]1(C)n1c3ccccc3c3c4c(c5c6ccccc6n2c5c31)C(=O)NC4 [Midostaurin] + Cc1cc(SCc2sc(-c3ccc(C(F)(F)F)c(F)c3)nc2C)ccc1OCC(=O)O [GW0742] (first compound 0.08 µM, partner dose 2 µM) | 176 | 249 | 188 | 93.6 | 152 | 127 | 170 | 82.5 | 63 |
| CN(C)S(=O)(=O)c1ccc2c(c1)/C(=C/c1cc3c([nH]1)CCCC3)C(=O)N2 + C/C(O)=C(\C#N)C(=O)Nc1cc(Br)ccc1Br [LFM-A13] (first compound 0.4 µM, partner dose 2 µM) | 113 | 73.9 | 131 | 195 | 65 | 43.2 | 234 | 170 | 55.4 |
| CN(NC(=O)CC(=O)NN(C)C(=S)c1ccccc1)C(=S)c1ccccc1 + Cc1cc(SCc2sc(-c3ccc(C(F)(F)F)c(F)c3)nc2C)ccc1OCC(=O)O [GW0742] (first compound 0.006 µM, partner dose 2 µM) | 180 | 159 | 27.7 | 125 | 125 | 49.2 | 62.7 | 76.8 | 726 |
| C[As](C)SC[C@H](NC(=O)CC[C@H](N)C(=O)O)C(=O)NCC(=O)O [Darinaparsin] + COC(=O)c1sccc1S(=O)(=O)Nc1ccc(Nc2ccccc2)cc1OC [GSK0660] (first compound 0.4 µM, partner dose 1 µM) | 101 | 69.3 | 212 | 115 | 50.2 | 115 | 129 | 241 | 78 |
| C=CCn1c(=O)c2cnc(Nc3ccc(N4CCN(C)CC4)cc3)nc2n1-c1cccc(C(C)(C)O)n1 + Cc1cc(SCc2sc(-c3ccc(C(F)(F)F)c(F)c3)nc2C)ccc1OCC(=O)O [GW0742] (first compound 0.02 µM, partner dose 2 µM) | 88.3 | 42.6 | 65.6 | 181 | 62.2 | 30.9 | 40.8 | 196 | 59.2 |
| Cc1ccc(NC(=O)c2cccc(N(C)C)c2)cc1NC(=O)c1ccc(O)cc1 + O=C(Oc1ccc([N+](=O)[O-])cc1)N1CCC(C(O)(c2ccc3c(c2)OCO3)c2ccc3c(c2)OCO3)CC1 [JZL184] (first compound 2 µM, partner dose 1 µM) | 53.2 | 85.8 | 52.6 | 83.8 | 81.6 | 210 | 28.2 | 194 | 74.8 |

Two records drawn at random from those above:

| Compound | cleaved PARP positive nuclei fraction (CBRC034) [%] | cleaved PARP positive nuclei fraction (COLO792) [%] | cleaved PARP positive nuclei fraction (COLO800) [%] | cleaved PARP positive nuclei fraction (COLO829) [%] | cleaved PARP positive nuclei fraction (G361) [%] | cleaved PARP positive nuclei fraction (IPC-298) [%] | cleaved PARP positive nuclei fraction (IST-MEL1) [%] | cleaved PARP positive nuclei fraction (LB2518-MEL) [%] | cleaved PARP positive nuclei fraction (LOXIMVI) [%] |
| --- | --- | --- | --- | --- | --- | --- | --- | --- | --- |
| C/C(O)=C(\C#N)C(=O)Nc1cc(Br)ccc1Br + O=C(Oc1ccc([N+](=O)[O-])cc1)N1CCC(C(O)(c2ccc3c(c2)OCO3)c2ccc3c(c2)OCO3)CC1 [JZL184] (first compound 2 µM, partner dose 1 µM) | 43.3 | 50.1 | 99.9 | 67.1 | 69.8 | 78.7 | 156 | 95.4 | 77.6 |
| Cc1cc(SCc2sc(-c3ccc(C(F)(F)F)c(F)c3)nc2C)ccc1OCC(=O)O + O=c1cc(-c2cccc3c2Sc2ccccc2S3)oc(N2CCOCC2)c1 [KU55933] (first compound 2 µM, partner dose 1 µM) | 72.5 | 85.1 | 41 | 91.5 | 61.9 | 40.6 | 179 | 221 | 33.5 |
